In the experiment the target is Androgen Receptor (AR) (Homo sapiens, UniProt P10275, T878A). Put plainly: LNCaP Androgen Receptor Down-regulation Cell Assay (immunofluorescence end point). Type of experiment: cell-based. As to conditions: read-out: Androgen Receptor Down-regulation Assay (a) IC50/μM; LNCaP prostate carcinoma cells, compound incubation 20-22 hours, 50% reduction of the AR signal.

Protein sequences, listed by entry. Tags and fused reporters are not part of them.
UniProt P10275, whole entry T878A: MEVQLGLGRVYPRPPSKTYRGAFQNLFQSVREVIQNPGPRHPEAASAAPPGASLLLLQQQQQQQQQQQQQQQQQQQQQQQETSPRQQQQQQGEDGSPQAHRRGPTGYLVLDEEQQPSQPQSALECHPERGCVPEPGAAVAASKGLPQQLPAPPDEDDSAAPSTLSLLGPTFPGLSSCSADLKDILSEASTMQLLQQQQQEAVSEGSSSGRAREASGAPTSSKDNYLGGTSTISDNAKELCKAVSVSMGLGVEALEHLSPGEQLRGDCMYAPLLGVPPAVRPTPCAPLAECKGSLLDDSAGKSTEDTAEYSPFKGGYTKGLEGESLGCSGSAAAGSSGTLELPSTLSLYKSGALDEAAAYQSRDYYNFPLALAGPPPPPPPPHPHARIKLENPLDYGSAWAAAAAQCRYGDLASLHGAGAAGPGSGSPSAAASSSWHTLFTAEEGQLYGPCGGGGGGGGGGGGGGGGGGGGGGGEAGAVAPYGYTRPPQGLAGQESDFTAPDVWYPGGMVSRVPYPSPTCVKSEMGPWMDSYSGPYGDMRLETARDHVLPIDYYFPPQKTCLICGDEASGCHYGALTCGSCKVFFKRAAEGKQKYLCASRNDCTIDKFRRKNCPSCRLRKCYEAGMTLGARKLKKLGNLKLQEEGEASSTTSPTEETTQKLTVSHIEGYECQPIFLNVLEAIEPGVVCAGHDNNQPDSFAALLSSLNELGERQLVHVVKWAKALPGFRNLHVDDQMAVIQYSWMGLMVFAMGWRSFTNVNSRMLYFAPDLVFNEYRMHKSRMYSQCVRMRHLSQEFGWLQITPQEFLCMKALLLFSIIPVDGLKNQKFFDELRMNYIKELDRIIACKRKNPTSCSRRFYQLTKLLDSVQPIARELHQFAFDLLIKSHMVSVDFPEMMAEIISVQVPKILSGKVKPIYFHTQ

The match of structure and compound is tentative.

In the case of `Fc1ccc(CN2CCN(c3ccc4nnc(C(F)F)n4n3)CC2)cc1`, the IC50 turned out to be 5.3 µM.
The figure for `FC(F)(F)c1nnc2ccc(N3CCC(Oc4ccc(Br)cn4)CC3)nn12` [Example 721] is more than 13 µM.
Next, `COc1ccccc1C1CCN(c2ccc3nnc(C(F)(F)F)n3n2)CC1`: 1.4 µM; `N#Cc1ccc(CN2CCN(c3ccc4nnc(C(F)(F)F)n4n3)CC2)cc1F`: 1.9 µM; `CC(F)(F)c1nnc2ccc(N3CCN(Cc4ccc(F)cc4)CC3)nn12`: 3 µM.
The figure for `C[C@H]1CN(Cc2cc(F)cnc2Cl)CCN1c1ccc2nnc(C(F)(F)F)n2n1` is 22 µM; for `FC(F)(F)c1nnc2ccc(N3CCC(COCCN4CCOCC4)CC3)nn12` it is 15 µM.
As for `O=S(=O)(c1ccccc1F)N1CCN(c2ccc3nnc(C(F)(F)F)n3n2)CC1`, the IC50 came out at 1.8 µM.
Take `Cc1cc(COc2ccc(OC3CCN(c4ccc5nnc(C(F)(F)F)n5n4)CC3)cc2)no1`: the IC50 worked out at 0.83 µM.
The figure for `FC(F)(F)c1nnc2ccc(N3CC4CN(Cc5cncc(Cl)c5)CC4C3)nn12` (stereo not shown) is 1.3 µM; for `COc1ccc(S(=O)(=O)N2CCCN(c3ccc4nnc(C(F)(F)F)n4n3)CC2)cc1` it is 13 µM; for `O=C(Nc1ccc(C2CCN(c3ccc4nnc(C(F)(F)F)n4n3)CC2)cc1)C1CCOCC1` it is 0.82 µM.
With `CCNC(=O)c1ccc(OC2CCN(c3ccc4nnc(C(F)(F)F)n4n3)CC2)cc1`, the IC50 was 4.2 µM.
Next, `O=C(NCCO)c1ccc(OC2CCN(c3ccc4nnc(C(F)(F)F)n4n3)CC2)cc1`: 7.4 µM.
On to `Cc1cc(CNC(=O)c2ccc(OC3CCN(c4ccc5nnc(C(F)(F)F)n5n4)CC3)cc2)no1`, for which the IC50 was 2.2 µM.
For the compound `O=S(=O)(c1cccc(F)c1)N1CCN(c2ccc3nnc(C(F)(F)F)n3n2)CC1`, the IC50 came out at 1.6 µM.
Next, `O=S(=O)(c1cccc(F)c1)N1CC2CN(c3ccc4nnc(C(F)(F)F)n4n3)CC2C1` (stereo not shown): 8.2 µM; `FC(F)(F)c1cccc(OCC2CCN(c3ccc4nnc(C(F)(F)F)n4n3)CC2)c1`: 3.9 µM.
Next, `COc1cc(CN2CCN(c3ccc4nnc(C(F)(F)F)n4n3)CC2)ccc1F`: 4.5 µM.
Next, `Fc1ccc(CN2CCN(c3ccc4nnc(C(F)(F)Cl)n4n3)CC2)cc1`: 1.3 µM.
On to `COc1ccc(S(=O)(=O)N2CCN(c3ccc4nnc(C(F)(F)F)n4n3)CC2)cc1OC`, for which the IC50 was found to be 2.8 µM.
The figure for `CN1CCC(Oc2ccc(N3CCN(c4ccc5nnc(C(F)(F)F)n5n4)CC3)cc2)CC1` is 3.2 µM; for `CCOCC1CCN(c2ccc3nnc(C(F)(F)F)n3n2)CC1` it is 1.5 µM; for `COc1cccc(S(=O)(=O)N2CCCN(c3ccc4nnc(C(F)(F)F)n4n3)CC2)c1` it is 21 µM.
Turning to `N#Cc1cc(CN2CCN(c3ccc4nnc(C(F)(F)F)n4n3)CC2)ccc1F`, the IC50 worked out at 1.1 µM.
As for `Fc1cnc(Cl)c(CN2CCN(c3ccc4nnc(C(F)(F)F)n4n3)CC2)c1`, the IC50 amounted to 11 µM.
Turning to `FC(F)(F)c1nnc2ccc(N3CCN(Cc4c[nH]c5cccnc45)CC3)nn12`, the IC50 amounted to 17 µM.
Turning to `O=C(c1ccc(OC2CCN(c3ccc4nnc(C(F)(F)F)n4n3)CC2)cc1)N1CCNCC1`, the IC50 worked out at 1.4 µM.

The record behind these values is US8003649B2 (AstraZeneca AB, priority 2007, dated 2011).
